{
  "source": "ChEMBL document CHEMBL1921676",
  "about": "“Pyrazolone-based anaplastic lymphoma kinase (ALK) inhibitors: control of selectivity by a benzyloxy group” (Bioorg Med Chem Lett, 2011)",
  "key": {"[1]": {"assay": "Aqueous solubility of the compound at pH 7.4", "details": "buffer"}, "physchem": {"assay": "physchem", "details": "buffer, pH 2"}},
  "data": [
    {"molecule": "CCOc1cccc2c1c(/C=C1\\C(=O)NN=C1c1snnc1C)cn2C", "values": [
      {"measurement": "solubility", "setting": "[1]", "result": "< 1", "unit": "µg/mL"},
      {"measurement": "solubility", "setting": "physchem", "result": "< 1", "unit": "µg/mL"}
    ]}
  ]
}
